Among the data in PubChem BioAssay AID493014 (National Center for Advancing Translational Sciences (NCATS), 2011) are AC50 values, retold here.

This assay can be described thus: qHTS Assay to Find Inhibitors of Chronic Active B-Cell Receptor Signaling. The settings on record: ABC-DLBCL IkBa-CBG/CBR reporter, luminescence ratio (green luciferase fused to IkBa over red control in TMD8 lymphoma cells), 4 h. The method in brief: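 TMD8 human ABC-DLBCL cells with doxycycline-inducible IκBα–green luciferase fusion and unfused red luciferase, in 0.5% FBS medium; compounds up to 46 uM, 4 h at 37C. Green/red luminescence ratio, filter-overlap corrected, fitted to concentration-response curves.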

Where [1] appears, read: measured here: CBR red luminescence, cell number.
The mark [2] stands for this setting: measured here: IkBa-CBG green luminescence.

Molecules are shown by their SMILES. Some of the results follow. The main result of the screen is listed elsewhere. These columns were measured beside it and carry no call. Compounds called inactive in the main read-out are mostly missing here. Words in brackets tell the shape of the fitted curve; partial curves, single points and poor fits give uncertain potencies.

As to `CCn1c(SCC(=O)Nc2ccc(N3CCOCC3)cc2)nnc1-c1ccc(OC)cc1`, under setting [1], the AC50 is 4.11 µM [falling, partial curve, poor fit].
The same measure, in the same setting: to `O=C(CNC(=O)C1COc2ccccc2O1)Nc1cc(Cl)ccc1Cl` (stereo not drawn) belongs 2.91 µM [falling, full curve]; to `CC(C)c1[nH]nc2c1C(c1ccc(OC(=O)c3ccco3)cc1)C(C#N)=C(N)O2` (stereo not drawn), 14.6 µM [falling, partial curve]; to `CCOc1ccc(CN(C)C(=O)Cc2c[nH]c3ccccc23)cc1`, 6.31 µM [rising, single point].
On the same count and under the same terms, the result for `CC1=CC2=NC(=O)/C(=C\c3cccn3CCOc3ccccc3)C(=N)N2O1` reads 23.1 µM [falling, single point].
Same read-out and setting: the result for `COc1ccc2oc(=Nc3cc(F)ccc3F)c(C(N)=O)cc2c1` reads 0.1 µM [rising, full curve, poor fit].
For `Cc1c(Cc2ccccc2)sc(/N=C/c2ccc3ccccc3c2)c1C(N)=O`, the AC50 under setting [1] is 23.1 µM [rising, single point].
Consider `Cc1ccc(NC(=O)C(C)S)cc1` (stereo not drawn), for which the AC50 under setting [1] is 10 µM [falling, partial curve].
As to `COc1ccc(CSc2ncnc3sccc23)cc1F`, under setting [1], the AC50 was 35.5 µM [rising, single point].
As for `ClCc1nc2ccccc2c2ccccc12`, the AC50 under setting [1] was 7.94 µM [rising, partial curve, poor fit] and the AC50 under setting [2] was 8.91 µM [falling, partial curve].
Turning to `O=C(N/N=C/c1cc(Cl)c(O)c(Cl)c1)c1cc2c(ccc3ccccc32)o1`, the AC50 under setting [1] was 35.5 µM [falling, single point].
With `Cc1cc(=O)n(CC(=O)Nc2ccc(Cl)c(Cl)c2)c(-n2nc(C)cc2C)n1`, the AC50 runs as follows: under setting [1], 35.5 µM [falling, partial curve, poor fit]; under setting [2], 28.2 µM [rising, partial curve, poor fit].
For the compound `COc1ccc(Cl)cc1NC(=O)COC(=O)/C=C/c1c(C)nn(C2CCS(=O)(=O)C2)c1Cl` (stereo not drawn), the AC50 under setting [1] was 15.8 µM [falling, single point].
Regarding `Brc1ccc(-c2nn3c(-c4ccccn4)nnc3s2)o1`, under setting [1], the AC50 was 7.31 µM [falling, partial curve, poor fit].
As to `COc1ccc(NC(=O)c2oc3ccccc3c2NC(=O)C2CC2)cc1`, under setting [1], the AC50 was 0.251 µM [falling, full curve, poor fit].
Regarding `O=C(CCCCCn1c(=S)[nH]c2ccc(N3CCOCC3)cc2c1=O)NC1CCN(Cc2ccccc2)CC1`, the AC50 under setting [1] was 2.82 µM [falling, full curve].
For the compound `COc1ccc(/C=C2\Sc3ccc(C(=O)N4CCN(Cc5ccccc5)CC4)cc3N(C)C2=O)cc1OC`, the half-maximal activity concentration (AC50) under setting [1] was 35.5 µM [falling, single point].
Consider `COc1cc(NC(=O)Cc2ccccc2)nc(OC)n1`, for which, under setting [1], the AC50 was 2.24 µM [rising, partial curve, poor fit].
As for `COc1ccc(NC(=O)c2sc(SC)nc2N)cc1`, under setting [1], the AC50 is 20 µM [falling, single point].
Turning to `CC1CCc2c(C(=O)Nc3cccc(-c4nn[nH]n4)c3)csc2C1` (stereo not drawn), the AC50 under setting [1] is 14.1 µM [falling, single point].
On to `CCOC(=O)c1c(N/N=C/c2ccncc2)n[nH]c1C`, for which the AC50 under setting [2] was 20.6 µM [rising, partial curve, poor fit].
For `CCN(CC)CC(=O)Nc1c(Br)ccc2c1OCO2`, under setting [1], the AC50 was 11.2 µM [falling, partial curve].
Consider `O=C(Cc1n[nH]c(=O)c2ccccc12)Nc1cccc(S(=O)(=O)N2CCCCCC2)c1`, for which the AC50 under setting [1] is 10.3 µM [falling, partial curve, poor fit].
On the same count and under the same terms, the result for `COc1cc2cc(C(c3nnnn3C(C)(C)C)N3CCC(C)CC3)c(=O)[nH]c2cc1OC` (stereo not drawn) reads 29.1 µM [falling, single point].
`Cc1ccc(-n2ncc3c(NCCCN(C)C)ncnc32)cc1Cl`: the AC50 under setting [1] was 5.01 µM [falling, full curve, poor fit].
Regarding `O=C(/C=C/c1ccco1)NC(=S)Nc1ccccc1N1CCCC1`, under setting [1], the AC50 was 35.5 µM [falling, single point].
For `CC(C)CNC(=O)CCc1nc(-c2ccccc2)no1`, the AC50 under setting [1] was 35.5 µM [rising, single point].
As for `COc1ccc(C2Sc3nncn3N2Cc2ccc(C#N)cc2)cc1` (stereo not drawn), the AC50 under setting [1] is 11.2 µM [falling, partial curve, poor fit].
As for `Cc1ccc2[nH]c(=O)c(CN(CCCO)C(C)c3nnnn3Cc3ccco3)cc2c1` (stereo not drawn), the AC50 under setting [1] is 35.5 µM [falling, single point].
The same measure, in the same setting: to `O=[N+]([O-])c1ccc(N2CCN(c3cccc(Cl)c3)CC2)cn1` belongs 0.0891 µM [falling, full curve, poor fit].
As for `CCOC(=O)c1c(N)sc(=S)c2c1CCC2`, under setting [1], the AC50 is 3.55 µM [falling, full curve, poor fit].
Take `Cn1c(-c2ccccc2)cnc1NCc1ccccc1`: the AC50 under setting [1] is 17.8 µM [falling, single point].
Turning to `N=C1C(c2nc3ccccc3s2)=C(O)CN1NC(=O)c1ccco1`, the AC50 under setting [1] was 5.62 µM [rising, partial curve, poor fit].
Take `CC(=O)Nc1ccc(C(=O)OCC(=O)N(c2ccccc2)C2CCCCC2)cc1`: the AC50 under setting [1] is 25.9 µM [falling, single point].
Take `Oc1ccccc1-n1c(-c2ccccc2)ccc1-c1ccccc1`: the half-maximal activity concentration (AC50) is 4.47 µM [rising, full curve, poor fit] under setting [1] and 35.5 µM [falling, partial curve, poor fit] under setting [2].
Turning to `Cc1cc(C(=O)NNC(=O)c2cccc(C(F)(F)F)c2)no1`, the AC50 under setting [1] is 35.5 µM [falling, single point].
Consider `COc1ccc(C(=O)Nc2cccc(C(=O)N3CCCCC3)c2)cc1`, for which the AC50 under setting [1] is 5.01 µM [falling, partial curve, poor fit].
`COCCn1c(SCc2cccnc2)nnc1-c1ccco1`: the AC50 under setting [1] is 0.461 µM [falling, partial curve, poor fit].
`NS(=O)(=O)c1ccc2c(c1)C1C=CCC1C(C1CC=CCC1)N2` (stereo not drawn): under setting [1], the AC50 was 3.26 µM [rising, partial curve, poor fit].
On to `N/C(=N\c1nc2ccccc2o1)NC(=O)c1ccccc1`, for which the AC50 under setting [1] was 1.84 µM [falling, full curve].
As for `CC(=O)Nc1nc(-c2ccc3ccccc3c2)cs1`, the AC50 under setting [1] is 2.24 µM [rising, partial curve].
As for `O=C(Nc1cccc(S(=O)(=O)Nc2ccc(Cl)cc2)c1)c1ccc(Cl)nc1`, the AC50 under setting [1] is 18.4 µM [falling, partial curve, poor fit].
Consider `Cc1nn(CC(C)C)c(Cl)c1C(=O)N(c1ccc(Cl)cc1F)S(C)(=O)=O`, for which, under setting [1], the AC50 was 11.2 µM [falling, partial curve, poor fit].
Same read-out and setting: to `CC(=O)Nc1ccc(NC(=O)c2ccc(C)c(S(=O)(=O)Nc3cccc(C)c3)c2)cc1` belongs 35.5 µM [falling, single point]; to `C=CC(=O)Nc1ccc(Nc2nc(NC3CCC(N(C)C)CC3)nc3c2ncn3C(C)C)cc1` (stereo not drawn), 6.51 µM [falling, full curve].
Take `CCOc1ccc(N=Cc2c(C)[nH]n(-c3nc4ccccc4[nH]3)c2=O)cc1`: under setting [1], the AC50 is 2.59 µM [falling, full curve].
With `Oc1ccccc1OCc1nc2ccccc2s1`, the AC50 under setting [1] was 18.4 µM [falling, single point].
Turning to `Cc1c(C(=O)NN)[nH]c2ccc([N+](=O)[O-])cc12`, the AC50 under setting [1] was 10 µM [falling, partial curve].
With `COc1cccc(C(=O)N/N=C/c2cn[nH]c2-c2ccc(OC)cc2OC)c1`, under setting [1], the AC50 was 5.01 µM [falling, full curve].
On to `N#CCCN/N=C(\Cc1nc2ccccc2[nH]1)c1ccccc1`, for which the AC50 under setting [1] is 29.1 µM [falling, single point].
For the compound `CC(C)CCn1c(O)c(N=NC(=O)c2ccco2)c2ccccc21`, the AC50 under setting [1] was 4.61 µM [rising, full curve].
On to `Oc1c(CN2CCN(c3ccccn3)CC2)cc(Cl)c2cccnc12`, for which the half-maximal activity concentration (AC50) under setting [1] is 6.51 µM [rising, partial curve, poor fit].
Consider `CC1(c2nnc(-c3ccc(Cl)cc3)o2)CC(c2cccc(Cl)c2)=NO1` (stereo not drawn), for which the AC50 under setting [1] was 22.4 µM [rising, single point].
Consider `Cc1noc(C)c1COc1ccccc1C(=O)NCCc1ccc(Cl)cc1`, for which the AC50 under setting [1] was 0.92 µM [rising, full curve].
On to `COc1cccc(C(=O)N2N=C(c3cccc(OC)c3)CC2(O)C(F)(F)F)c1` (stereo not drawn), for which the AC50 under setting [1] is 10 µM [falling, partial curve, poor fit].
Take `COc1cccc(C2Nc3cccc4cccc(c34)N2)c1`: under setting [1], the AC50 is 6.31 µM [rising, single point].
The same measure, in the same setting: to `COc1ccc(Cl)cc1C(=O)NNC(=O)c1ccncc1` belongs 35.5 µM [falling, single point]; to `CCCCCCOc1ccc(C(=O)O)cc1`, 35.5 µM [falling, single point].
Regarding `CCc1ccc(C2=NN(CCC(=O)NCCc3ccc(Cl)cc3)C(=O)CC2)cc1`, the AC50 under setting [1] is 35.5 µM [falling, single point].
Take `COc1ccc(NC(=O)c2ccc(OCC3CCCO3)cc2)cc1OC` (stereo not drawn): under setting [1], the AC50 was 23.1 µM [falling, single point].
For `CCCN(CC(=O)Nc1cc(Cl)ccc1Cl)C(=O)c1ccccn1`, under setting [1], the AC50 was 3.66 µM [rising, full curve].
Same read-out and setting: to `COc1cccc(C2=NNC(=NCc3ccccc3)SC2)c1` belongs 7.08 µM [falling, partial curve, poor fit].
As to `Cc1ccc(Sc2ccc(N)cn2)cc1`, under setting [1], the AC50 was 0.631 µM [falling, partial curve, poor fit].
Turning to `O=C(COC(=O)c1ccncc1)Nc1ccc2c(c1)OCO2`, the AC50 under setting [1] was 6.51 µM [falling, partial curve, poor fit].
The same measure, in the same setting: the result for `O=C(N/N=C(\CC(=O)c1cccs1)C(F)(F)F)c1ccncc1` reads 35.5 µM [falling, single point].
